# The campaign covered roughly 360,000 compounds. About 780 (0.22%) were called active. Inconclusive means that the source gave no clear call. Such entries were picked first, then a sample of the others. Cut-off read from the data, not from the text of the source: active = inhibition above about 35% (passing the limit was not always enough); inconclusive = no clear call, values can overlap the other calls.
# System: Botulinum neurotoxin type F light chain protease (Clostridium botulinum)
# Assay: BoNT/F light chain protease inhibitors, primary screen, biochemical, flow cytometry, MLPCN library (AID 588497); note: plate controls were buffer without enzyme for full effect and enzyme alone for no effect
# Conditions: Multiplex microsphere protease cleavage assay, at 10 µM, active compounds read high
row,SMILES,inhibition
1,CN(C)C(=O)c1ccc(-c2n[nH]c(=O)c3ccccc23)cc1,inactive: -1%
2,C=CCN1C(=O)C(C)(C)N(C(=O)c2cccc([N+](=O)[O-])c2)c2ccccc21,inconclusive: 14%
3,O=C(CCCOc1ccc(Br)cc1)NNC(=O)c1ccncc1,inconclusive: 3.3%
4,Cn1cccc1/C=N/N1CCN(Cc2cccc3ccccc23)CC1,inconclusive: -20.8%
5,C/C(=C1/SC(=S)N(CCC(=O)O)C1=O)c1ccc(O)cc1,inactive: -2.6%
6,O=S(=O)(Nc1ccccc1Br)c1cccc2cccnc12,inactive: -0.4%
7,COc1ccc(-c2nnn(-c3ccc(Cl)cc3Cl)c2N)cc1,inconclusive: 15.9%
8,O=C(C[n+]1ccccc1)NNc1ccccc1,inactive: -8.8%
9,NC(=S)Nc1cccc(F)c1,inconclusive: 1.1%
10,Cc1ccc(Cl)cc1N1CCN(C(=O)Cn2ccc3ccccc3c2=O)CC1,inconclusive: -28.5%
11,COc1ccc(C(=O)SC2=NCCS2)cc1OC,inconclusive: -4.6%
12,CC(C)CNC(=S)N(CCN(C)C)Cc1cc2cc3c(cc2[nH]c1=O)OCCO3,inconclusive: 9.9%
13,Cc1cccc(NS(=O)(=O)c2cc3c4c(c2)CCC(=O)N4CCC3)c1,inconclusive: 32.5%
14,O=c1c2ccccc2nc(-c2ccco2)n1/N=C/c1ccco1,inconclusive: 0.1%
15,Cc1ccc(S(=O)(=O)Cc2ccc(C(=O)N3CCCC3)o2)cc1,inactive: -10%
16,O=C(NNc1cc(Cl)ccc1Cl)C1CCC1,inconclusive: -83.8%
17,O=C(CNC(=O)C1CCCCC1)NC1CCCCC1,inconclusive: 45.2%
18,O=C(O)c1ccc(Nc2nc(-c3cccnc3)cs2)cc1O,inconclusive: -45.7%
19,Cc1nc(C)c(-c2ccn(S(=O)(=O)c3ccc(Cl)cc3)n2)o1,inconclusive: -45.7%
20,O=c1[nH]c(-c2ccccc2)ncc1Oc1ccccc1,inconclusive: 46.5%
21,COc1ccc(CSc2nc(CSC)cc(N3CCOCC3)n2)cc1,inactive: -20.1%
22,Nc1nc2n(n1)C(c1cccs1)CC(c1ccccc1)N2 (stereo not given),inactive: -41.8%
23,CCC(C)NC(=O)c1ccccc1NC(=O)c1ccc(CSc2ccc(C)cc2)cc1 (stereo not given),inactive: -6.1%
24,CCOc1ccc(/C=N/NC(=O)CN2CCCCC2)cc1OCC,inconclusive: -20.9%

# Four entries from above, bar-delimited.
row | SMILES | inhibition
4 | Cn1cccc1/C=N/N1CCN(Cc2cccc3ccccc23)CC1 | inconclusive: -20.8%
8 | O=C(C[n+]1ccccc1)NNc1ccccc1 | inactive: -8.8%
16 | O=C(NNc1cc(Cl)ccc1Cl)C1CCC1 | inconclusive: -83.8%
20 | O=c1[nH]c(-c2ccccc2)ncc1Oc1ccccc1 | inconclusive: 46.5%

# Next records

row,SMILES,inhibition
1,O=C(CN1CCCCC1)n1c2ccccc2c2ccccc21,inconclusive: -66.1%
2,COc1ccccc1NS(=O)(=O)c1ccc2[nH]c(=O)[nH]c2c1,active: 36.1%
3,O=C(COc1ccc(Cl)cc1Cl)NCc1ccncc1,inactive: 0.3%
4,C#CCOc1ccc(C2C3=C(CC(C)(C)CC3=O)N(CC(=O)O)C3=C2C(=O)CC(C)(C)C3)cc1OC,inconclusive: -14.7%
5,O=C(CN1CCCCC1)N/N=C/c1ccc(Cl)cc1Cl,active: 42.2%
6,CCOC(=O)c1cnn(-c2ccc(C)cc2)c1N,inconclusive: 2.6%
7,CCC(=O)N(CCc1ccccc1)Cc1cc2cccc(C)c2[nH]c1=O,inconclusive: -11.6%
8,COc1ccc(CCN2C(=O)CC(Sc3ncccc3C(=O)O)C2=O)cc1OC (stereo not given),inactive: 1%
9,Cn1c(=O)c2c(nc(NCc3ccc4c(c3)OCO4)n2Cc2ccccc2F)n(C)c1=O,inconclusive: -28.1%
10,CCOc1cc(C2C(C(=O)O)c3cc(OCC)c(OCC)cc3C(=O)N2C)ccc1O (stereo not given),inconclusive: -19.1%
11,O=C(Nc1ncccn1)c1ccc([N+](=O)[O-])cc1[N+](=O)[O-],inconclusive: -8.6%
12,COc1ccc(-c2nnn(Cc3ccccc3)n2)cc1OC,inconclusive: 31%
13,C=CCNc1nc(NCCCN2CCCC2=O)c2sc(-c3ccccc3)cc2n1,inactive: -7.1%
14,Cc1ccc(C(=O)N(c2ccccc2)C2CC(C)N(C(=O)c3ccco3)c3ccccc32)cc1 (stereo not given),inconclusive: -33.9%
15,CC1CCC(N2CCN(C(=O)c3ccccc3F)CC2)CC1 (stereo not given),inconclusive: -14.2%
16,CC(C)(CC(=O)O)CC(=O)Nc1cc(C(F)(F)F)cc(C(F)(F)F)c1,inconclusive: 15.3%
17,Cc1nc2ccc([N+](=O)[O-])cc2c(=O)n1Cc1cccc(F)c1,active: 85.3%
18,COc1ccc(CN2CCN(CC3CC3)CC2CCO)cc1C (stereo not given),inconclusive: -11.9%
19,O=C1C2C3C=CC(C3)C2C(=O)N1c1ccc2ccccc2c1 (stereo not given),inconclusive: -26.9%
20,O=C(COC(=O)c1ccc2c(c1)OCCO2)NC1CCCCC1,inactive: -4.2%
21,O=C(Cc1ccccc1)N1CCC(c2ccccc2)C1 (stereo not given),inconclusive: 112%
22,O=C(COC(=O)CC1CCCCC1)Nc1c(Cl)cccc1Cl,inactive: -8.2%
23,CC(=O)N1CCC(C(=O)Nc2cc(C)cc(C)c2)CC1,inconclusive: 14%
24,C=CCN(c1ccccc1)S(=O)(=O)c1cccc(C(=O)NCC(c2ccc(F)cc2)N2CCOCC2)c1 (stereo not given),inconclusive: 37.8%

row,SMILES,inhibition
1,C[C@]12CS(=O)(=O)C[C@H]1SC(=S)N2c1ccccc1,inconclusive: -22.8%
2,CC(=O)Nc1cccc(NC(=O)CSc2nnnn2C(C)C)c1,inconclusive: -15.8%
3,COCC(=O)Nc1cc(C)cn(Cc2ccccc2Cl)c1=O,inconclusive: 14.9%
4,CCc1ccccc1N1CN(Cc2cccnc2)CNC1=S,inconclusive: 18.7%
5,CC(C)CCN1CC(O)=C(c2nc(-c3ccc(Cl)cc3)cs2)C1=N,inconclusive: -7.3%
6,CCOC(=O)c1cnc2c(c(C)nn2C)c1Oc1ccc(OC)cc1,inconclusive: 77.9%
7,O=C(Oc1cccc(C(=O)N2CCOCC2)c1)c1ccc(Br)cc1,inconclusive: -15.8%
8,O=c1c([N+](=O)[O-])cccn1Cc1cccc(Br)c1,inactive: 27.5%
9,CC(=C/c1ccccc1)/C=N/NC(=O)c1cccs1,inconclusive: 15%
10,CC(C)N(CC#CC(O)(c1ccccc1)c1ccccc1)C(C)C,inconclusive: 129%
11,O=C(NCC1CCCO1)c1ccc(COc2ccccc2)o1 (stereo not given),inactive: -1.8%
12,O=C(O)C1CCCN1C(=O)OCC1c2ccccc2-c2ccccc21 (stereo not given),inconclusive: 3.5%
13,COC(=O)c1ccc(NC(=O)c2cccc(NC(=O)c3ccco3)c2)cc1,inconclusive: -10.4%
14,COc1ccc2c(C)c(CCC(=O)NC3CC3)c(=O)oc2c1,inactive: -7.2%
15,CCOc1cc(C(=O)NC(=S)Nc2cccnc2)cc(OCC)c1OCC,inactive: 2.8%
16,C/C(=N\NS(C)(=O)=O)c1ccccc1,inactive: 1.5%
17,Cc1ccc(-c2nc(NCCCO)c3ccccc3n2)cc1,inconclusive: 34.6%
18,CC(=O)c1c(C)[nH]c(=S)c(C#N)c1-c1ccc(F)cc1,inconclusive: -54.2%
19,COc1ccc(CN2CCN(Cc3cc4ccccc4o3)CC2CCO)c(F)c1 (stereo not given),inconclusive: 0.9%
20,CCN(C(=O)COC(=O)CNS(=O)(=O)c1ccc(SC)c([N+](=O)[O-])c1)C1CCCCC1,inconclusive: 0.4%
21,CCN(CC(=O)Nc1ccc(NC(C)=O)cc1)Cc1c(O)ccc2cc(Br)ccc12,inactive: 1.9%
22,CC(=O)Nc1ccc(NC(=O)c2cccc3ccccc23)cc1,inconclusive: 19.4%
23,COc1ccccc1C(=O)NCCNc1ccc([N+](=O)[O-])cc1Cl,inconclusive: -11.5%
24,COc1ccc2c(c1)c(-c1csc(N)n1)c(C)n2C,inconclusive: -41.9%

# Part of the list above in a different format.
row | SMILES | inhibition
3 | O=C(CCCOc1ccc(Br)cc1)NNC(=O)c1ccncc1 | inconclusive: 3.3%
1 | O=C(CN1CCCCC1)n1c2ccccc2c2ccccc21 | inconclusive: -66.1%

# Additional compounds.

row,SMILES,inhibition
1,CC1(C(=O)NS(=O)(=O)c2ccc(C#N)cc2)CCN1C(=O)C1(c2ccccc2)CC1 (stereo not given),inactive: -3.4%
2,CCc1nnc(NC(=O)CN2CC(C)OC(C)C2)s1 (stereo not given),active: 34.5%
3,Cc1ccc(SCCSc2ncccn2)cc1,inconclusive: -8.6%
4,COc1ccccc1Nc1nc2c(s1)CCC2,inconclusive: -10.4%
5,CC1CCCC(C)N1CC(O)Cn1c2ccccc2c2ccccc21 (stereo not given),inconclusive: -22%
6,c1ccc(-c2noc(-c3ccc4ccccc4c3)n2)nc1,inactive: -1.3%
7,O=C(CSc1ncnc2sccc12)Nc1ccc(S(=O)(=O)N2CCOCC2)cc1,inconclusive: -20.9%
8,COc1cc2[nH]c(=S)n(C3CCCC3)c(=O)c2cc1OC,inactive: -1.2%
9,Clc1ccc(OCc2nnc(SCc3nnc(-c4ccccc4)o3)o2)c(Cl)c1,inactive: -4.5%
10,O=C(CSc1nnc(Cc2ccccc2)o1)NCc1ccc2c(c1)OCO2,inactive: 5.4%
11,Cc1ccccc1CN1CCN(Cc2ccc3cccc(F)c3n2)CC1CCO (stereo not given),inconclusive: -29.7%
12,O=C1CC(c2cccc(Cl)c2)C(n2cncn2)C(=O)C1C1NCCc2ccccc21 (stereo not given),inactive: 5.2%
13,O=C(O)c1ccc(/C=N/NC(=O)c2ccc(NS(=O)(=O)c3cccs3)cc2)cc1,inactive: -1.1%
14,CC1CCCC(C)N1/N=C/c1ccc(O)cc1 (stereo not given),inconclusive: -4.4%
15,CN(C)c1ccc(/C=N/n2c(-c3ccccc3Br)n[nH]c2=S)cc1,inconclusive: 74.5%
16,Cc1cc(C)cc(N2C(=O)/C(=C\c3ccc(N4CCN(C)CC4)o3)C(=O)NC2=S)c1,inconclusive: -76%
17,Cc1cc(NC(=O)CSc2nnc(C)n2-c2ccccc2C)no1,inactive: -7.7%
18,CCCCOC(=O)c1cc(Cl)c(O)c(OC)c1,inconclusive: 0%
19,FC(F)(F)c1nc(Sc2ncccc2C(F)(F)F)n[nH]1,inconclusive: -89.5%
20,COCCCNC(=O)CSc1nc2ccccc2c(=O)n1CCc1ccc(S(N)(=O)=O)cc1,inactive: 4.5%
21,Nc1nnc(Cc2ccc(Cl)cc2)s1,inconclusive: -19.8%
22,NC(=O)NC(=O)c1nccnc1C(=O)O,inconclusive: -16.1%
23,Cn1c(=O)n(C)c2cc(NC(=O)c3ccccc3NS(C)(=O)=O)ccc21,inconclusive: -11.6%
